Assay results as given in patent publication US20080255252A1, “Infectious Aetiology of Prostatic Disease and Methods to Identify Causative Agents” (Tissugen Pty. Ltd., priority 2004, published 2008).

Tests used:
[1] = tested on: Gram-negative bacteria and Staphylococcal species; settings: furazolidone at 6 μg/mL in semi-selective medium, anaerobic incubation at 37° C.
Protocol: (§1) Brain Heart Infusion Agar (Oxoid Australia Ltd) was prepared containing 0.5% Tween 80 and adjusted to a pH of 6.0 using hydrochloric acid prior to autoclaving. […] Both antibiotics were prepared freshly immediately prior to use, and the agar plates were incubated at 37° C. for 24 hrs to ensure sterility then stored at 4° C. and used within 3 weeks of preparation.

[2] = tested on: P. acnes Group 1, 2 and 3 isolates; assay: Growth of P. acnes isolates on semi-selective Brain Heart Infusion agar containing antibiotics; assay type: cell-based, Propionibacterium acnes
Protocol: as §1
Inclusion of gentamicin as a selective agent and Tween 80 as a growth stimulant for P. acnes was previously discussed by Kishishita (1980).

Compound: O=C1OCCN1/N=C/c1ccc([N+](=O)[O-])o1 [furazolidone]
- growth of Gram-negative bacteria and Staphylococcal species from urine samples [1]: prevented growth
- growth of some strains of P. acnes Groups 2 and 3 ([2]; at 6 μg/mL furazolidone and 4 μg/mL gentamicin in the semi-selective medium): noticeable growth inhibition
- maximal concentration that allowed reasonable growth ([2]; semi-selective agar, after 7 days of anaerobic incubation): 6 µg/mL
